Reference: US9458195B2 (Ipsen Pharma S.A.S., priority 2005, dated 2016)
Bridges are numbered along the chain shown (N, C = ends). Where no end group is shown, it is not given here. [ ]: non-standard residue; d: D form. Bip = N[C@@H](Cc1ccc(-c2ccccc2)cc1)C(=O)O; 1Nal = N[C@@H](Cc1cccc2ccccc12)C(=O)O; 2Nal = N[C@@H](Cc1ccc2ccccc2c1)C(=O)O; d2Nal = N[C@H](Cc1ccc2ccccc2c1)C(=O)O; hArg = N=C(N)NCCCC[C@H](N)C(=O)O; hCha = N[C@@H](CCC1CCCCC1)C(=O)O; Cha = N[C@@H](CC1CCCCC1)C(=O)O; Pen = CC(C)(S)[C@H](N)C(=O)O; Nle = CCCC[C@H](N)C(=O)O; Ahx = NCCCCCC(=O)O; GABA = NCCCC(=O)O; βAla = NCCC(=O)O

Tests used:
peptide synthesis = conditions: whole synthesis
[1] = general procedure: Fmoc solid-phase peptide synthesis; Rink Amide MBHA resin (0.58 mmol/g); Wang resin for C-terminal OH; MBHA resin (0.91 mmol/g) for Boc chemistry; DIC/HOBt, double-coupling with HBTU/HOBt/DIEA; HBTU/DIEA (Boc); conditions: whole synthesis, scale of the general procedure 0.035 mmol, 0.20 mmol

Substance | purity (crude or final not stated) (peptide synthesis) [%] | purity (crude or final not stated) [1] [%] | other results
Ac-hPhe-c(Asp-His-D-2-Nal-Arg-Trp-Gaba-Lys)-NH2 | 99 |  | 
Ac-LCH[dF]RW[GABA]C-NH2 (disulfide 2-8) | 96.7 |  | 
n-Butyryl-Cha-c(Asp-His-D-Phe-Arg-Trp-Gaba-Lys)-NH2 | 88.6 |  | 
Ac-Nle-c(Cys-Gaba-His-D-Phe-Arg-Trp-Cys)-NH2 | 93 |  | 
Ac-Oic-c(Asp-His-D-Phe-Arg-Trp-Gaba-Lys)-NH2 | 97.5 |  | 
Ac-[Nle][Pen]H[dF]RW[GABA][Pen]-NH2 (disulfide 2-8) | 99.9 |  | 
[dF]CH[dF]RW[GABA][dC]T-NH2 (disulfide 2-8) | 99 |  | 
Ac-hLeu-c(Asp-His-D-Phe-Arg-Trp-Gaba-Lys)-NH2 | 99 |  | 
Ac-Cha-c(Asp-His-D-Phe-Arg-Trp-Gaba-Lys)-NH2 |  |  | final HPLC purity (peptide synthesis): 94.5%; isolated yield (peptide synthesis): 8.9%
Ac-hCha-c(Asp-His-D-Phe-Arg-Trp-Gaba-Lys)-NH2 | 99 |  | 
Ac-Nle-c(D-Cys-Gaba-His-D-Phe-Arg-Trp-Cys)-NH2 | 94 |  | 
Ac-D-2-Nal-c(Asp-His-D-Phe-Arg-Trp-Gaba-Lys)-NH2 | 92.6 |  | 
Ac-hPro-c(Asp-His-D-Phe-Arg-Trp-Gaba-Lys)-NH2 | 99 |  | 
Ac-Nip-c(Asp-His-D-Phe-Arg-Trp-Gaba-Lys)-NH2 | 98.9 |  | 
Ac-Nle-c(Cys-Gaba-His-D-Phe-Arg-Trp-D-Cys)-NH2 | 93 |  | 
Ac-D-hCha-c(Asp-His-D-Phe-Arg-Trp-Gaba-Lys)-NH2 | 94 |  | 
Ac-VCH[dF]RW[GABA]C-NH2 (disulfide 2-8) | 95.4 |  | 
Ac-FDH[dF]RW[GABA]K-NH2 (lactam 2-8) | 96.9 |  | 
Ac-A6c-c(Asp-His-D-Phe-Arg-Trp-Gaba-Lys)-NH2 | 93 |  | 
Ac-Cha-c(Asp-His-D-2-Nal-Arg-Trp-Gaba-Lys)-NH2 | 100 |  | 
Ac-RCH[dF]RW[GABA][Pen]-NH2 (disulfide 2-8) | 99 |  | 

Substance | purity (crude or final not stated) (peptide synthesis) [%] | purity (crude or final not stated) [1] [%] | other results
Ac-ICH[dF]RW[GABA]C-NH2 (disulfide 2-8) | 95 |  | 
Ac-[Nle]CH[d2Nal]RW[Ahx]C-NH2 (disulfide 2-8) |  | 99 | 
[dF]CH[dF][hArg][Bip][βAla][dC]T-NH2 (disulfide 2-8) |  | 99 | 
Ac-Nle-c(Cys-His-D-Phe-Arg-D-Trp-Ahx-Cys)-NH2 |  | 99 | 
Ac-[Nle]CGH[dF]RW[dC]-NH2 (disulfide 2-8) |  | 91 | 
Ac-[Cha]DH[dF]R[dW]AK-NH2 (lactam 2-8) |  | 85 | 
Ac-[Nle][dC]GH[dF]RWC-NH2 (disulfide 2-8) |  | 96 | 
nButanoyl-Nle-c(Cys-D-Ala-His-D-Phe-Arg-Trp-Cys)-NH2 |  | 99.9 | 
Ac-Arg-c(Cys-D-Ala-His-D-Phe-Arg-Trp-Pen)-NH2 |  | 99 | 
Ac-Nle-c(Cys-D-Ala-His-D-Phe-Arg-Trp-Apn-Cys)-NH2 |  | 96.8 | 
Ac-D-Phe-c(Asp-His-D-Phe-Arg-Trp-Gaba-Lys)-NH2 | 96.5 |  | 
Ac-[Nle]CH[dF]RW[GABA][Pen]-NH2 (disulfide 2-8) | 99.9 |  | 
Ac-Nle-c(Asp-His-D-Phe-Arg-D-Trp-Apn-Lys)-NH2 |  | 97.3 | 
Ac-Nle-c(Asp-His-D-Phe-Arg-D-Trp-β-Lys)-NH2 |  | 82 | 
Ac-[Nle]C[dA]H[dF]R[2Nal]C-NH2 (disulfide 2-8) |  | 97.7 | 
Ac-β-hMet-c(Asp-His-D-Phe-Arg-Trp-Gaba-Lys)-NH2 | 89 |  | 
FCH[dF]RW[GABA]C-NH2 (disulfide 2-8) | 95.8 |  | 
[dF]CH[dF]RWA[dC]T-NH2 (disulfide 2-8) |  | 99 | 
Ac-[Nle][Pen]H[dF]RW[GABA]C-NH2 (disulfide 2-8) | 95 |  | 
Ac-Nle-c(Asp-His-D-Phe-Arg-Trp-D-Ala-Lys)-NH2 |  | 99.9 | 
Ac-Nle-c(D-Cys-D-Ala-His-D-Phe-Arg-Trp-D-Cys)-NH2 |  | 93 | 

Substance | purity (crude or final not stated) (peptide synthesis) [%] | purity (crude or final not stated) [1] [%] | other results
nButanoyl-Nle-c(Cys-D-Ala-His-D-Phe-Arg-2-Nal-Cys)-NH2 |  | 95.7 | 
Ac-Nle-c(Cys-His-D-Phe-Arg-D-Trp-Apn-Cys)-NH2 |  | 99 | 
Ac-Nle-c(Asp-His-D-Phe-Arg-D-Trp-Gaba-Lys)-NH2 | 99 |  | 
Ac-C[dA]H[dF]RWAC-NH2 (disulfide 1-8) |  | 95.2 | 
Ac-Cha-c(Asp-His-D-Phe-Arg-Trp-Gaba-Lys)-NH2; | 94.5 |  | 
Ac-c(Cys-Glu-His-D-Phe-Arg-2-Nal-Ala-Cys)-NH2 |  | 98.3 | 
[dF]CH[dF]R[Bip][βAla][dC]T-NH2 (disulfide 2-8) |  | 99 | 
Ac-[Nle]CH[d2Nal]RW[GABA]C-NH2 (disulfide 2-8) | 99.99 |  | 
Ac-Nle-c(Cys-D-Ala-His-D-Phe-Arg-Trp-β-Ala-Cys)-NH2 |  |  | purity (crude or final not stated) ([1]; run 1): 98.2%; purity (crude or final not stated) ([1]; run 2): 97.3%
Ac-Nle-c(Asp-His-D-Phe-Arg-Trp-Apn-Lys)-NH2 |  | 99 | 
Ac-Nle-c(Asp-D-Ala-His-D-Phe-Arg-Bal-Ala-Lys)-NH2 |  | 99.9 | 
Ac-Nle-c(Cys-D-Ala-His-D-Phe-Arg-Trp-Gaba-Cys)-NH2 |  |  | purity (crude or final not stated) ([1]; run 1): 95.1%; purity (crude or final not stated) ([1]; run 2): 96.5%
Ac-Nle-c(Asp-D-Ala-His-D-Phe-Arg-Bal-Lys)-NH2 |  | 96.5 | 
Ac-Nle-c(Cys-Aib-His-D-Phe-Arg-Trp-D-Cys)-NH2 |  | 90 | 
Ac-Nle-c(D-Cys-Aib-His-D-Phe-Arg-Trp-D-Cys)-NH2 |  | 95 | 
Ac-Nle-c(Cys-D-Ile-His-D-Phe-Arg-Trp-Cys)-NH2 |  | 99.9 | 
[dF]CH[dF][hArg]W[βAla][dC]T-NH2 (disulfide 2-8) |  | 96.9 | 
Ac-Nle-c(Pen-D-Ala-His-D-Phe-Arg-Trp-Cys)-NH2 |  | 99.9 | 
Ac-Nle-c(Cys-D-Val-His-D-Phe-Arg-Trp-Cys)-NH2 |  | 99.9 | 
Ac-Nle-c(Cys-D-Ala-His-D-Phe-Arg-Trp-Pen)-OH |  | 99.9 | 
D-Phe-c(Cys-His-D-(Et)Tyr-hArg-Trp-β-Ala-D-Cys)-Thr-NH2 |  | 97 | 

Substance | purity (crude or final not stated) (peptide synthesis) [%] | purity (crude or final not stated) [1] [%] | other results
Ac-D-Arg-c(Cys-D-Ala-His-D-Phe-Arg-Trp-Pen)-NH2 |  | 96.4 | 
Ac-[Nle]CGH[dF]RWC-NH2 (disulfide 2-8) |  | 90 | 
Ac-Nle-c(Asp-His-D-2-Nal-Arg-Trp-Ala-Lys)-NH2 |  | 99.99 | 
Ac-C[dA]H[dF]R[2Nal]AC-NH2 (disulfide 1-8) |  | 95.6 | 
Ac-[hCha]DH[dF]R[dW]AK-NH2 (lactam 2-8) |  | 87 | 
Ac-[Nle]C[dA]H[d2Nal]R[1Nal]C-NH2 (disulfide 2-8) |  | 94.8 | 
Ac-Nle-c(Cys-D-Ala-His-D-Phe-Arg-Trp-D-Cys)-NH2 |  | 66 | 
Ac-Nle-c(Cys-D-Ala-His-D-2-Nal-Arg-Bal-Cys)-NH2 |  | 95.6 | 
Ac-FDH[dF]R[dW]AK-NH2 (lactam 2-8) |  | 81.9 | 
Ac-Nle-c(Cys-His-D-Phe-Arg-Trp-Apn-Cys)-NH2 |  | 99 | 
Ac-Nle-c(Cys-D-Ala-His-D-Phe-Arg-Trp-Gly-Cys)-NH2 |  | 96.8 | 
Ac-Nle-c(Cys-D-Ala-His-D-Phe-Arg-Bal-Cys)-NH2 |  | 96.2 | 
Ac-[Nle]C[dA]H[dF]RW[dA]C-NH2 (disulfide 2-9) |  | 96.4 | 
Ac-Nle-c(D-Cys-Aib-His-D-Phe-Arg-Trp-Cys)-NH2 |  | 91 | 
Ac-Nle-c(D-Cys-β-Ala-His-D-Phe-Arg-Trp-Cys)-NH2 |  | 92 | 
Ac-Nle-c(Cys-D-Cha-His-D-Phe-Arg-Trp-Cys)-NH2 |  | 96.4 | 
Ac-CEH[dF]RWAC-NH2 (disulfide 1-8) |  | 99.9 | 
[dF]CH[dF]RW[βAla][dC]T-NH2 (disulfide 2-8) |  | 93 | 
